These results are taken from patent US20100119512A1, “METHODS OF DIAGNOSING, TREATING, AND PREVENTING INCREASED VASCULAR PERMEABILITY” (Joslin Diabetes Center, priority 2007, published 2010).

This series is described as follows: Vitreous pH after intravitreal injection (micro-electrode or BCECF-dextran probe). The class given is in vivo, rat.

“CA-I: human erythrocyte CA-I (Sigma), carbonic anhydrase 1”: the “pH of vitreous, electrode” value (5 min after intravitreal injection, microminiature electrode) is given as 7.8±0.21. For the same substance, for the setting “following intravitreal injection, BCECF-dextran”, the “vitreous pH calculated using pH sensitive dye and reference pH” value is 7.96±0.38.
